Measurements: publication PMC3691262
Results are given in words; binding and its absence hold for the method and conditions named. Binding seen in cells or lysates may run through a third protein. Some results given as binding are weak or reduced against the parent protein; the word gives no strength. Where a sequence is shown, tags or fusion partners need not be part of it.

Molecular target: T1, FLAG-tagged murine Dact1 (Dapper Antagonist of Catenin-1) (mouse) (UniProt Q8R4A3)
T1 sequence: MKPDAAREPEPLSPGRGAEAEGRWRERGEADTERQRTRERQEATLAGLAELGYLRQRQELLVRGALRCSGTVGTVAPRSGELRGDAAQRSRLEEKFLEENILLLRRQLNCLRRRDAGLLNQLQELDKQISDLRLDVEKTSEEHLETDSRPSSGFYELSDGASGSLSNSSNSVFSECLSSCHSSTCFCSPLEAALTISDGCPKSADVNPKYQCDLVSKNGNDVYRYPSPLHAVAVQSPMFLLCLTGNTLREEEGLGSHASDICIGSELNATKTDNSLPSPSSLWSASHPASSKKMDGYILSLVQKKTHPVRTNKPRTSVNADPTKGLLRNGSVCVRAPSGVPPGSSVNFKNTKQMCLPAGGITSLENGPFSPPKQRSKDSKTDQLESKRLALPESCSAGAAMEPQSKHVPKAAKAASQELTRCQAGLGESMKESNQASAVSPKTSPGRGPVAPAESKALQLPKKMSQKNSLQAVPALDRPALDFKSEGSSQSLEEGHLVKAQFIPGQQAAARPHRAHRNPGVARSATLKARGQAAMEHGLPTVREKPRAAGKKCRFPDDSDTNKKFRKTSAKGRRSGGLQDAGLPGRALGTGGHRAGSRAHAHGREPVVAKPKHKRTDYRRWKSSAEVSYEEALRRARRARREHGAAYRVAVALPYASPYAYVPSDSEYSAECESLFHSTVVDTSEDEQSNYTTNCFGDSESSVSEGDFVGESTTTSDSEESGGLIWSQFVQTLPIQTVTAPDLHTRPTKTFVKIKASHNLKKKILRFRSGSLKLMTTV
Assay: co-IP; FLAG-Dact1 and HA-DISC1 recombinantly expressed in HEK293T cells; complexes immunoprecipitated with anti-FLAG agarose beads, associated proteins detected by immunoblot with anti-HA antibody

B1: HA-tagged murine DISC1 (Disrupted in Schizophrenia-1) (protein, UniProt Q811T9 1-852)
chain: MQGGGPRGAPIHSPSHGADSGHGLPPAVAPQRRRLTRRPGYMRSTAGSGIGFLSPAVGMPHPSSAGLTGQQSQHSQSKAGQCGLDPGSHCQASLVGKPFLKSSLVPAVASEGHLHPAQRSMRKRPVHFAVHSKNDSRQSERLTGSFKPGDSGFWQELLSSDSFKSLAPSLDAPWNKGSRGLKTVKPLASPALNGPADIASLPGFQDTFTSSFSFIQLSLGAAGERGEAEGCLPSREAEPLHQRPQEMAAEASSSDRPHGDPRHLWTFSLHAAPGLADLAQVTRSSSRQSECGTVSSSSSDTGFSSQDASSAGGRGDQGGGWADAHGWHTLLREWEPMLQDYLLSNRRQLEVTSLILKLQKCQEKVVEDGDYDTAETLRQRLEELEQEKGRLSWALPSQQPALRSFLGYLAAQIQVALHGATQRAGSDDPEAPLEGQLRTTAQDSLPASITRRDWLIREKQRLQKEIEALQARMSALEAKEKRLSQELEEQEVLLRWPGCDLMALVAQMSPGQLQEVSKALGETLTSANQAPFQVEPPETLRSLRERTKSLNLAVRELTAQVCSGEKLCSSLRRRLSDLDTRLPALLEAKMLALSGSCFSTAKELTEEIWALSSEREGLEMFLGRLLALSSRNSRRLGIVKEDHLRCRQDLALQDAAHKTRMKANTVKCMEVLEGQLSSCRCPLLGRVWKADLETCQLLMQSLQLQEAGSSPHAEDEEQVHSTGEAAQTAALAVPRTPHPEEEKSPLQVLQEWDTHSALSPHCAAGPWKEDSHIVSAEVGEKCEAIGVKLLHLEDQLLGAMYSHDEALFQSLQGELQTVKETLQAMILQLQPTKEAGEASASYPTAGAQETEA
For B1, the binding was “binds”.
